The chains behind the UniProt entries cited, without tags or fusion partners.
UniProt P22227: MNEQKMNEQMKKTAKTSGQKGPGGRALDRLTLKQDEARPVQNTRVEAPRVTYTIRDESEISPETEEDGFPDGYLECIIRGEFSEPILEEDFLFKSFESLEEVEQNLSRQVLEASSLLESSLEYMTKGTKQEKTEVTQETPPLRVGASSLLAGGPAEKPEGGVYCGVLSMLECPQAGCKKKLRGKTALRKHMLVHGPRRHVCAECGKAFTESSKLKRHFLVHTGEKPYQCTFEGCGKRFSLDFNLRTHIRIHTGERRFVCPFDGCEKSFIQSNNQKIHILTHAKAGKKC
UniProt P17918: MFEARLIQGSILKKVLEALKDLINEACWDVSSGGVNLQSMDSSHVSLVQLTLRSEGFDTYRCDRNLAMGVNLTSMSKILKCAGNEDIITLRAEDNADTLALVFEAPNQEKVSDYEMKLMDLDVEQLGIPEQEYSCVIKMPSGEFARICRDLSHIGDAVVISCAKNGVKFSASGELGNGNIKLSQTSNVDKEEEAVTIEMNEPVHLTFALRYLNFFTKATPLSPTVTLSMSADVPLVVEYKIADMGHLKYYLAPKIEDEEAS

According to PMC10781586:

Columns and labels:
[1] = target: T1, 3xHA-TurboID-RNF12 (mouse) (UniProt Q9WTV7); assay: proximity labelling; 3xHA-TurboID-RNF12 against 3xHA-TurboID control in Rlim+/y mESCs, triplicate; doxycycline 18 h, then 10 uM MG132 with 50 uM biotin 4 h; lysis in 8 M urea, 50 mM Tris pH 7.4; streptavidin pull-down and mass spectrometry; hits labelled >twofold over control
T1 sequence: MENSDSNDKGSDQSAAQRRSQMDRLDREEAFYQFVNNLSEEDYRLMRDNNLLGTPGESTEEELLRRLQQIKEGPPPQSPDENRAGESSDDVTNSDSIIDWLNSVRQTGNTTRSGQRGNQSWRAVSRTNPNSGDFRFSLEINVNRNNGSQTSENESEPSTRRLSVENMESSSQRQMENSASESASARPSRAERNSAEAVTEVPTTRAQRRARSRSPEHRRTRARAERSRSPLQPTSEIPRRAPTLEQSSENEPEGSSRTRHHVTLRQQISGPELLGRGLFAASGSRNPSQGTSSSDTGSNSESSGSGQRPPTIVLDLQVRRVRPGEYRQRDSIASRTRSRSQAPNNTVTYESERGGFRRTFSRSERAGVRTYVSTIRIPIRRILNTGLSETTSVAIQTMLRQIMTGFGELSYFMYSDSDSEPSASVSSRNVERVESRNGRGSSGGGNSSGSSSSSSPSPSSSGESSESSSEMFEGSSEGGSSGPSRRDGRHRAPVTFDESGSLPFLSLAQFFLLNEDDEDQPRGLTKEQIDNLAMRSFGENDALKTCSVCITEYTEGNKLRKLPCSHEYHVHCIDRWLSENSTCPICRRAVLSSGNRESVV

[2] = target: T1, 3xHA-TurboID-RNF12 (mouse); assay: as above; remark: listed apart in the source

binding [1]: binds
Molecule: REX1 (ZFP42), endogenous in mESCs (from UniProt P22227 1-288)

binding [1]: binds
Molecule: PCNA, endogenous in mESCs (from UniProt P17918 1-261)

binding [2]: binds
B1: WRNIP1, endogenous in mESCs (protein, UniProt Q91XU0 1-660)
chain: MEVSGPEDDPFLSQLHQVQCPVCQQMMPAAHINSHLDRCLLLHPAGHAEPAAGSHRAGERAKGPSPPGAKRRRLSESSALKQPATPTAAESSEGEGEEGDDGGETESRESYDAPPTPSGARLIPDFPVARSSSPARKGMGKRPAAAAAAGSASPRSWDEAEAQEEEEAGVDGDGDADVDGEDDPGHWDADAADASFGVSAGRAHPRALAAEEIRQMLEGKPLADKMRPDTLQDYIGQSRAVGQETLLRSLLEANEIPSLILWGPPGCGKTTLAHIIANNSKKHSIRFVTLSATNAKTNDVRDVIKQAQNEKSFFKRKTILFIDEIHRFNKSQQDTFLPHVECGTITLIGATTENPSFQVNAALLSRCRVIVLEKLPVEAMVTILMRAINSLGIHVLDSSRPTDPLSHSSNCSSEPSVFIEDKAVDTLAYLSDGDARTGLNGLQLAVLARLSSRKVFCKKSGQTYSPSRVLITENDVKEGLQRSHILYDRAGEEHYNCISALHKAMRGSDQNASLYWLARMLEGGEDPLYVARRLVRFASEDIGLADPSALAQAVAAYQGCHFIGMPECEVLLAQCVVYFARAPKSIEVYSAYNNVKACLRSHQGPLPPVPLHLRNAPTRLMKDLGYGKGYKYNPMYSEPVDQDYLPEELRGVDFFKQRRC

Where two headings read alike, the source gives them in different places. These are yes or no findings as the source states them, for the method shown. In cells and extracts the contact can be indirect. A yes stands for co-enrichment or nearness to the bait. Other partners may have been found. Each block holds one molecule with its values, some of them ahead of it.
